# From PubChem BioAssay AID504834 (National Center for Advancing Translational Sciences (NCATS), 2011)
# Out of some 320,000 compounds screened, about 22,000 (6.9%) were called active. This list was built around the results that the source calls inconclusive (neither active nor inactive); the mix of calls is not that of the screen. Calls come from the whole dose curve; as a rule, active = well fitted inhibition curve with a large enough effect; inconclusive = small, poorly fitted or top-dose-only effect, or another doubt; inactive = no such curve, though single readings can be large or run the other way. Potencies beside an inconclusive call are fits to weak or partial responses and may not hold up.
# Assay: Primary qHTS for delayed death inhibitors of the malarial parasite plastid, 96 hour incubation
# Settings: P. falciparum luciferase reporter growth; series mostly up to 28.7 µM
# Procedure, shortened: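 P. falciparum expressing integrated firefly luciferase, in erythrocytes at 2% hematocrit, 0.05% parasitemia, incubated with compounds 96 h at 37 C, 5% CO2. Growth inhibition read as loss of luminescence; two-generation exposure targets delayed-death apicoplast inhibitors.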
# Potency is the fitted concentration of half-maximal effect.
row,SMILES,Potency
1,CCNC(=S)Nc1cccc(Cl)c1C,"inconclusive: 18.5 µM [inhibitor, single point]"
2,C/C(=N/NC(=O)C1CCN(S(=O)(=O)c2ccc(C)cc2)CC1)c1cccc([N+](=O)[O-])c1,inactive
3,COc1ccc(-c2ccc(C#N)c(SCC(=O)NC3CC3)n2)cc1OC,"inconclusive: 7.38 µM [inhibitor, partial curve, poor fit]"
4,CCCc1nc(NC(=O)c2ccccc2)nc(NC(=O)c2ccccc2)n1,"inconclusive: 18.5 µM [inhibitor, partial curve, poor fit]"
5,Cc1ccc2c(CN(C)Cc3ccccc3)cc(=O)oc2c1C,inactive
6,O=C(Nc1cccc(C(F)(F)F)c1)c1cc(-c2cccs2)on1,"inconclusive: 3.7 µM [inhibitor, full curve, poor fit]"
7,COc1ccc(C2C(CN3CCOCC3)C(=O)N2c2ccccc2)cc1 (configuration not stated),inactive
8,O=C(CCSCc1ccccc1F)NCCc1ccccc1,"inconclusive: 10.4 µM [inhibitor, partial curve]"
9,Nc1cccc(-n2cccc2)c1,inactive
10,CCN(CC)S(=O)(=O)c1ccc2oc(C(=O)N3CCCCCC3)c(C)c2c1,inactive
11,CC(=O)Nc1ccc(NC(=O)CCS(=O)(=O)c2ccc3c(c2)oc(=O)n3C)cc1,active: 9.28 µM
12,CCOc1ccccc1N1CC(C(=O)Nc2ccc(S(=O)(=O)N3CCCCC3)cc2)CC1=O (configuration not stated),"inconclusive: 4.65 µM [inhibitor, partial curve]"
13,CCOC(=O)C1=C(c2cccc(F)c2)NC(=S)NC1C (configuration not stated),"inconclusive: 16.5 µM [inhibitor, single point]"
14,Cc1cc2cc(CNC(=O)c3ccco3)ccc2n1C,"inconclusive: 10.4 µM [inhibitor, single point]"
15,Cc1c(NC(=O)c2cccc(-c3cc4ccccc4oc3=O)c2)cccc1-c1nc2ncccc2o1,"inconclusive: 18.5 µM [inhibitor, single point]"
16,CN1CCC(OC(=O)C2c3ccccc3Oc3ccccc32)CC1,"inconclusive: 9.28 µM [inhibitor, partial curve, poor fit]"
17,COc1cccc(C2NC(=O)NC(C)=C2C(=O)OCC2CCCO2)c1 (configuration not stated),"inconclusive: 4.65 µM [inhibitor, full curve, poor fit]"
18,CS(=O)(=O)N(CC(=O)NCc1ccncc1)c1cc(Cl)ccc1Cl,"inconclusive: 10.4 µM [inhibitor, partial curve, poor fit]"
19,CCOC(=O)N1CCC(NC(=O)Cn2c3c(c(-c4ccccc4Cl)cc2=O)CCC3)CC1,"inconclusive: 18.5 µM [inhibitor, single point]"
20,COc1ccc(-n2cc(CNC3CCC(O)CC3)c(-c3cccc(F)c3)n2)cc1 (configuration not stated),"inconclusive: 18.5 µM [inhibitor, single point]"
21,Cc1nn(Cc2ccc(Cl)cc2)c(C)c1NC(=O)CCCn1nc(C)c([N+](=O)[O-])c1C,"inconclusive: 18.5 µM [inhibitor, single point]"

# Exported bar-delimited: two of the compounds above
row | SMILES | Potency
9 | Nc1cccc(-n2cccc2)c1 | inactive
10 | CCN(CC)S(=O)(=O)c1ccc2oc(C(=O)N3CCCCCC3)c(C)c2c1 | inactive

# Remaining list, next part

row,SMILES,Potency
1,COc1ccc([C@H]2CC(=O)C=C(c3ccc(Cl)c(C(F)(F)F)c3)C2)cc1,"inconclusive: 16.5 µM [inhibitor, single point]"
2,C/C(=N\NC(=S)NCc1ccccc1)c1ccc2c(c1)OCCO2,"inconclusive: 18.5 µM [inhibitor, single point]"
3,Cc1ccc(S(=O)(=O)NCc2ccncc2)cc1C(=O)NCC(C)C,"inconclusive: 14.7 µM [inhibitor, partial curve]"
4,COc1ccc(C2=CC(=O)C=CC2=O)cc1,active: 10.4 µM
5,O=C(NCc1ccc(Cl)cc1)C(=O)N/N=C/c1ccc(Br)cc1,"inconclusive: 10.4 µM [inhibitor, single point]"
6,COCCNC(=O)CN1C(=O)NC2(CCCc3ccccc32)C1=O (configuration not stated),inactive
7,COc1ccc(Cc2noc(CN(C)CCc3ccccc3)n2)cc1OC,"inconclusive: 8.28 µM [inhibitor, partial curve]"
8,COc1ccccc1CNC(=O)C1CCN(S(=O)(=O)c2ccc3c(c2)NC(=O)CO3)CC1,active: 10.4 µM
9,COC(=O)C1=C(c2ccccc2OCc2ccccc2)C[C@@H]2CC[C@H]1N2C(=O)NCc1ccc(Cl)cc1,"inconclusive: 2.62 µM [inhibitor, full curve]"
10,O=C(/N=C1/c2ccccc2CN1c1ccccc1)Nc1ccccc1,"inconclusive: 14.7 µM [inhibitor, partial curve, poor fit]"
11,COC(=O)c1sccc1-n1cccc1C(=O)N1CCOCC1,"inconclusive: 0.415 µM [inhibitor, full curve, poor fit]"
12,C=CCn1c(SCCCC)nc(O)cc1=O,"inconclusive: 1.31 µM [inhibitor, partial curve, poor fit]"
13,COc1ccc(OCC(=O)N(Cc2sccc2C)C2CCS(=O)(=O)C2)cc1 (configuration not stated),"inconclusive: 4.15 µM [inhibitor, full curve]"
14,CCS(=O)(=O)Nc1cccc(C2=NN(S(=O)(=O)CC)C(c3cccs3)C2)c1 (configuration not stated),active: 13.1 µM
15,CNC(=O)NC(=O)C(C)Oc1ccccc1F (configuration not stated),inactive
16,Cc1ccc(NC(=O)CSc2nnc(-c3ccncc3)n2C)cc1S(=O)(=O)N1CCOCC1,"inconclusive: 8.28 µM [inhibitor, partial curve, poor fit]"
17,Cc1onc(-c2ccccc2)c1C(=O)N/N=C/c1c[nH]c2ccccc12,inactive
18,C=C1CCC[C@]2(C)C[C@H]3OC(=O)C(CNCCN(CC)CC)[C@H]3CC12 (some centres not stated),"inconclusive: 8.28 µM [inhibitor, partial curve, poor fit]"
19,CC(C)CCNc1nc(N)c([N+](=O)[O-])c(NC2CCCCC2)n1,"inconclusive: 2.62 µM [inhibitor, partial curve, poor fit]"
20,CCC1CCCN1Cn1cnc2c([nH]c3ccc(Cl)cc32)c1=O (configuration not stated),"inconclusive: 18.5 µM [inhibitor, partial curve, poor fit]"
21,Oc1ccccc1C=Nc1cccc2ccccc12,"inconclusive: 11.7 µM [inhibitor, single point]"
